The supplement of paper PMC12823440, “Inhibitors supercharge kinase turnover through native proteolytic circuits” (Nature, 2025)
The other results are listed elsewhere or left out. The calls rarely recur for the same compound in another form.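 In K562 cells expressing nanoluciferase-fused kinases, luminescence was recorded at 4 h intervals between 2 and 18 h, normalized as percent of control with DMSO at 100% and a positive control at 0%. A significant (2 sigma) signal drop marks a time point as decreased. The authors' rule for a hit is not shown and takes in more than the number of time points.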

The chains behind the UniProt entries cited, without tags or fusion partners. Where a name states a change or a piece, a line headed by the entry shows the natural chain unless it says otherwise.
UniProt Q15208: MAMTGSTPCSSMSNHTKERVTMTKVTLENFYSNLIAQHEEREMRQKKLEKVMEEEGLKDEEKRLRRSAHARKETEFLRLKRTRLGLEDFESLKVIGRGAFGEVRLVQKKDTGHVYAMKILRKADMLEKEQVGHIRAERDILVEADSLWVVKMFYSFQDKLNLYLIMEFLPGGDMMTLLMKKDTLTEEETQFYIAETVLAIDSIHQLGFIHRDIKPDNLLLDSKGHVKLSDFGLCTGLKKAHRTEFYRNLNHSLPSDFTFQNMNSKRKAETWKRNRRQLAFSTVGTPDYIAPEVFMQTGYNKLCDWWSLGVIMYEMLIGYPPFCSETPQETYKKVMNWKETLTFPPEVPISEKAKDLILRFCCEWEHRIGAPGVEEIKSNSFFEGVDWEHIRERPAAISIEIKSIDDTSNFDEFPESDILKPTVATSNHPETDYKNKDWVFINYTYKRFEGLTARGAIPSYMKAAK
UniProt P07947, whole entry, looked up: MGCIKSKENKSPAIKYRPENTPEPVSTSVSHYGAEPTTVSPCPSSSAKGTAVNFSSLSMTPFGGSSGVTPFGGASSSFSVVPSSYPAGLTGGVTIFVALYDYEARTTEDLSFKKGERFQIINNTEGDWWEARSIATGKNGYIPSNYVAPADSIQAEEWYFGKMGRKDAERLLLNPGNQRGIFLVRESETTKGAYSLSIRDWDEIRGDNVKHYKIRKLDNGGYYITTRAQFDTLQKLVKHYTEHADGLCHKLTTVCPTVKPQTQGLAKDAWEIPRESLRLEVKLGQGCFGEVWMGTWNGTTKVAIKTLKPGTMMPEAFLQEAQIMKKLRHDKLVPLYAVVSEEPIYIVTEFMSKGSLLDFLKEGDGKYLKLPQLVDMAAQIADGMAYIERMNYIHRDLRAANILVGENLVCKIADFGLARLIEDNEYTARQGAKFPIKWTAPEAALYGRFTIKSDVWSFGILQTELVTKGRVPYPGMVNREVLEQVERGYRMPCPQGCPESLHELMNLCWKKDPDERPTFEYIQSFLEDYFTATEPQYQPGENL
UniProt P43403: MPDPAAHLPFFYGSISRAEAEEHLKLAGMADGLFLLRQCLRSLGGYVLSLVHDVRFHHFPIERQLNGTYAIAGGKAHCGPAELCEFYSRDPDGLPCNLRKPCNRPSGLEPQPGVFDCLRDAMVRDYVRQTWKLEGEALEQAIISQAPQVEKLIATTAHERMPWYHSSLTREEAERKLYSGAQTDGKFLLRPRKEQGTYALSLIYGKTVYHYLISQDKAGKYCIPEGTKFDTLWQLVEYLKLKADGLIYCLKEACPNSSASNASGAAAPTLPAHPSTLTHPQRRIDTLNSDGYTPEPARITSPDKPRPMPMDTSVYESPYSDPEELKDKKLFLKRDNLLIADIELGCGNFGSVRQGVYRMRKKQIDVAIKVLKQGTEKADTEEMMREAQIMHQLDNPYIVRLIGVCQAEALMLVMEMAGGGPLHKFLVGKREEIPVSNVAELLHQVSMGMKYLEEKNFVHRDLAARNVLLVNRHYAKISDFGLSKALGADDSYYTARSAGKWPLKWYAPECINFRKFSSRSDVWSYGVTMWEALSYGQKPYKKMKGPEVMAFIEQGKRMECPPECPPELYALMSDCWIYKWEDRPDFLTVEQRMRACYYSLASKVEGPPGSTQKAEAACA
UniProt P00519, whole entry: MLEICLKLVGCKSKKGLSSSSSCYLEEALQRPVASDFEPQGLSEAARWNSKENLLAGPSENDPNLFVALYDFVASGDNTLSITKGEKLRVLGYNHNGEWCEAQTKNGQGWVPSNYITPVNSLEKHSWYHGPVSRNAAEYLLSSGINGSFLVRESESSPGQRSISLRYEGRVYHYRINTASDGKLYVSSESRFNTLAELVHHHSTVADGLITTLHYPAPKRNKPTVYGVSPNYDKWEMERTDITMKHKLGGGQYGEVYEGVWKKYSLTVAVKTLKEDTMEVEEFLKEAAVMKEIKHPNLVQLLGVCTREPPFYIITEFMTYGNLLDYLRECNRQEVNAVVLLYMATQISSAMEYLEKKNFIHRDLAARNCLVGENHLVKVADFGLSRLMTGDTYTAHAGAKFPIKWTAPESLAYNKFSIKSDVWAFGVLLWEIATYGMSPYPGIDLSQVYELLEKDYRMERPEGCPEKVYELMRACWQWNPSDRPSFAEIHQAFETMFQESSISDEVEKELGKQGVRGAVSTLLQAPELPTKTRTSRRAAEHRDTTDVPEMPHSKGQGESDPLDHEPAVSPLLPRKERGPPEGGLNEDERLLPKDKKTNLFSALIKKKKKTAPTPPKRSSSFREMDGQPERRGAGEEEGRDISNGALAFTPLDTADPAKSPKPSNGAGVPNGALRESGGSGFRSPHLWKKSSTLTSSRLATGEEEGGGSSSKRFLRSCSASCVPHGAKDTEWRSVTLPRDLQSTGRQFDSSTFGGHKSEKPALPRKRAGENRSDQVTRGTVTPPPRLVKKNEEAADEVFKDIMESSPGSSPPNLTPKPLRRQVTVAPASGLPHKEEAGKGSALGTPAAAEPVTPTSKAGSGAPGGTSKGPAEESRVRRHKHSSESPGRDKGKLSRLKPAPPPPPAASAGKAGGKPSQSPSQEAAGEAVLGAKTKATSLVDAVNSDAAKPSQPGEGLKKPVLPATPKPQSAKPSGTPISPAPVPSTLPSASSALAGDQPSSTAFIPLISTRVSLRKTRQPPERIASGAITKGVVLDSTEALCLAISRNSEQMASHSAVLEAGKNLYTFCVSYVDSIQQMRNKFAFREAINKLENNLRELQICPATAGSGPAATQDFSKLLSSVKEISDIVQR
UniProt P31749: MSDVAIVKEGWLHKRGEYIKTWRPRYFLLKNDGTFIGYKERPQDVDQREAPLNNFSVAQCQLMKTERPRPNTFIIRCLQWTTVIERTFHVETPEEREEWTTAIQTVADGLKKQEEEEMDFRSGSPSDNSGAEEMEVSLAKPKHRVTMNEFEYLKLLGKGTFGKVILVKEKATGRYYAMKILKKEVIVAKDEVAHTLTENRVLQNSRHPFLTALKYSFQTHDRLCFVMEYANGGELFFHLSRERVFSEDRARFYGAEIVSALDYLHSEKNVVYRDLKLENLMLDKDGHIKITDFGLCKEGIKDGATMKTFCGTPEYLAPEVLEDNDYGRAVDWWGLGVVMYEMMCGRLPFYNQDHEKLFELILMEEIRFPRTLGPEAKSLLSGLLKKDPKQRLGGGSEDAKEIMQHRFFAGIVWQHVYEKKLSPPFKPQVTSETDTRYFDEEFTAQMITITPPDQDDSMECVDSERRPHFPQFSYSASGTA
UniProt Q9UM73: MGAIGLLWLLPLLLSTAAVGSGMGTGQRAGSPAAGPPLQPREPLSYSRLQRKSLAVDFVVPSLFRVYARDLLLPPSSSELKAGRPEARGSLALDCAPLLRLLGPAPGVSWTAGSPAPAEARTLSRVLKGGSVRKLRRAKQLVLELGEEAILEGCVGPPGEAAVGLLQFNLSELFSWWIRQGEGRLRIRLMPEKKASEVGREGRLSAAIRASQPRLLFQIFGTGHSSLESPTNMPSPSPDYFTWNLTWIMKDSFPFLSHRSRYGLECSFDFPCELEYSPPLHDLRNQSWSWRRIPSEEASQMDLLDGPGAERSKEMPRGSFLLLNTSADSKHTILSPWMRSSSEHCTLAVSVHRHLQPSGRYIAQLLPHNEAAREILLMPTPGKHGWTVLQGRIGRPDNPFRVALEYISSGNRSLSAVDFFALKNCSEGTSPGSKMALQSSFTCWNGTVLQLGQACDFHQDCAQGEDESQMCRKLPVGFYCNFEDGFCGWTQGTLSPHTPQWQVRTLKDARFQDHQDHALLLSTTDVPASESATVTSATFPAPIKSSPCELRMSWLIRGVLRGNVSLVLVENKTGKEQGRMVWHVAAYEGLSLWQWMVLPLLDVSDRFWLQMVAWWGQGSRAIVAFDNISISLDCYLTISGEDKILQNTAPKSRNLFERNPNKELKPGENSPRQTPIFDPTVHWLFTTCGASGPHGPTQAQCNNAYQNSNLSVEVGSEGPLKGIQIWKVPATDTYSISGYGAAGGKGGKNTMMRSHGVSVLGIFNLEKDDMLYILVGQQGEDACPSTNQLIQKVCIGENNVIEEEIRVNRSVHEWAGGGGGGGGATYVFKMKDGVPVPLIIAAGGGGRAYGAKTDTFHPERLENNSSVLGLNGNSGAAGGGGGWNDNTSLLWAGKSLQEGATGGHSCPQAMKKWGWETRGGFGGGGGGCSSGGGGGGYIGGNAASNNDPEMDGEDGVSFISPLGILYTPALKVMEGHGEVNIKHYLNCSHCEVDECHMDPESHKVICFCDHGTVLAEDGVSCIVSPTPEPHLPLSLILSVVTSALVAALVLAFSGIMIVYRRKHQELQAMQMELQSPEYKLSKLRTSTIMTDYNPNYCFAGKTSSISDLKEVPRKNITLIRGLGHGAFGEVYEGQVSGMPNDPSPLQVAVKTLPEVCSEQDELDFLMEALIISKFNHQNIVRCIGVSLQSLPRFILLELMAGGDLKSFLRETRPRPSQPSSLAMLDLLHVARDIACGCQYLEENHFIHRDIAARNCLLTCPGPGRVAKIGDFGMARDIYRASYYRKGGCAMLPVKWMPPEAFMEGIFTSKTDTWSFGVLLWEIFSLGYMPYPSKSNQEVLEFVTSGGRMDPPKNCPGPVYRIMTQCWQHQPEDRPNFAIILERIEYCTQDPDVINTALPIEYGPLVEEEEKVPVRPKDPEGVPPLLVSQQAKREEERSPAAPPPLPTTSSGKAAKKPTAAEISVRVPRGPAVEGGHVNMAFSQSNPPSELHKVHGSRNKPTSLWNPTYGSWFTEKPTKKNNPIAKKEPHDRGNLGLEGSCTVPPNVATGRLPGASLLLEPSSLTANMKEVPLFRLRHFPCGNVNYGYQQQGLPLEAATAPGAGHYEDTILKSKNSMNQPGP
UniProt O14965: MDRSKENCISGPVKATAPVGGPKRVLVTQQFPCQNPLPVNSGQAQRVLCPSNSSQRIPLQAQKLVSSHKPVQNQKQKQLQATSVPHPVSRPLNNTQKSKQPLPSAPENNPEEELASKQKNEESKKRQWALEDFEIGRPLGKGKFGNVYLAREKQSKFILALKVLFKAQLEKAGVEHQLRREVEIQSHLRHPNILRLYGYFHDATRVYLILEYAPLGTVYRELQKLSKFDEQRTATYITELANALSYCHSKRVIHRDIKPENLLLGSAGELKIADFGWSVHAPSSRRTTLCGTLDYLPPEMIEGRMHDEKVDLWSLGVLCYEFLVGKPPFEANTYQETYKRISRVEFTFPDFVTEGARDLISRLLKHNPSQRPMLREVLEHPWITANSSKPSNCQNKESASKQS
UniProt P51813: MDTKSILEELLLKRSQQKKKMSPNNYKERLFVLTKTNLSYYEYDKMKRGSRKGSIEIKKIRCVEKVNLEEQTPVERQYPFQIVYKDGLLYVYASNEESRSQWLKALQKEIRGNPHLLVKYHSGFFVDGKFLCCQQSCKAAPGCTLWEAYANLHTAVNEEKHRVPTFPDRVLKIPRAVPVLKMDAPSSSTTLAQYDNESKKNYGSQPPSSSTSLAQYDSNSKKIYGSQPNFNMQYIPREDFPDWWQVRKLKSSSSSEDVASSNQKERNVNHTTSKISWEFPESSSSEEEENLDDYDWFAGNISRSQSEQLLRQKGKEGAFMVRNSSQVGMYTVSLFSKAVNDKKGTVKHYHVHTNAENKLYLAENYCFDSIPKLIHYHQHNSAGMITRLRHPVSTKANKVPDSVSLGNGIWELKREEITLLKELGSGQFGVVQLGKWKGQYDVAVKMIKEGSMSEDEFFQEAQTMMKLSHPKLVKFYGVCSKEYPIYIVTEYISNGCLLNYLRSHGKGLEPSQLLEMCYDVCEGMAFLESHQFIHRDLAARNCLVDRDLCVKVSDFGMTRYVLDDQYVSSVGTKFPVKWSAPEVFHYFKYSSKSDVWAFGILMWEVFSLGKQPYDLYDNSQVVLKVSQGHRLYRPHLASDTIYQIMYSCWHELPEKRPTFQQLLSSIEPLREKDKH
UniProt Q06187: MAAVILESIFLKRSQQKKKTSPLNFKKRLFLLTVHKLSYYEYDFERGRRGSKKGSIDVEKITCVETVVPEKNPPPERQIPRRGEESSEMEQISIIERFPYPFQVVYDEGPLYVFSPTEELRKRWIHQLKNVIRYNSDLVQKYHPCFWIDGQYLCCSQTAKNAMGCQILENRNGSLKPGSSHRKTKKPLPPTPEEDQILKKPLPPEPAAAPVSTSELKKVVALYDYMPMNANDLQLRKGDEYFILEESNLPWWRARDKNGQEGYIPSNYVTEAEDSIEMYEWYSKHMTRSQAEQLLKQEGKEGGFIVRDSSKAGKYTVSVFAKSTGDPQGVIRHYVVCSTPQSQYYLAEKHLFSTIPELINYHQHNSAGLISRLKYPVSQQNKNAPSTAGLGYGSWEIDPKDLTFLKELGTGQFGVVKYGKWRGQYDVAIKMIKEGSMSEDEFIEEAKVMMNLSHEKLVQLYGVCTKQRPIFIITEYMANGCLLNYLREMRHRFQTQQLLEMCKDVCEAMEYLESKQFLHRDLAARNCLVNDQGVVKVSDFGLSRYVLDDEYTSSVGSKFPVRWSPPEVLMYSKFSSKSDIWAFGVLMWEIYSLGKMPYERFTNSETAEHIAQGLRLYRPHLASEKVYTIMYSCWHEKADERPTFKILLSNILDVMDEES

Assays:
Conditions in all cases: K562; 2-18 h
STK38 = STK38 (UniProt Q15208); assay: kinase-Nluc reporter destabilization hit call (1 = scored as downregulated) (binary); higher = compound decreases kinase abundance
SYK = SYK (UniProt P43405); assay: as above
TEC = TEC (UniProt P42680); assay: as above
TYK2 = TYK2 (UniProt P29597); assay: as above
ULK3 = ULK3 (UniProt Q6PHR2); assay: as above
YES1 = YES1 (UniProt P07947); assay: as above
ZAK = ZAK (UniProt Q9NYL2); assay: as above
ZAP70 = ZAP70 (UniProt P43403); assay: as above
ABL1 = ABL1 (UniProt P00519); assay: number of time points (of 5) at which kinase-Nluc abundance scored as decreased, DMSO-normalised (count); higher = more persistent destabilization
AKT1 = AKT1 (UniProt P31749); assay: as above
ALK = ALK (UniProt Q9UM73); assay: as above
ARAF = ARAF (UniProt P10398); assay: as above
AURKA = AURKA (UniProt O14965); assay: as above
AURKB = AURKB (UniProt Q96GD4); assay: as above
AURKC = AURKC (UniProt Q9UQB9); assay: as above
BLK = BLK (UniProt P51451); assay: as above
BMX = BMX (UniProt P51813); assay: as above
BRAF = BRAF (UniProt P15056); assay: as above
BRAF_V600E = assay: as above
BTK = BTK (UniProt Q06187); assay: as above

SMILES | kinase-Nluc reporter destabilization hit call (STK38) | kinase-Nluc reporter destabilization hit call (SYK) | kinase-Nluc reporter destabilization hit call (TEC) | kinase-Nluc reporter destabilization hit call (TYK2) | kinase-Nluc reporter destabilization hit call (ULK3) | kinase-Nluc reporter destabilization hit call (YES1) | kinase-Nluc reporter destabilization hit call (ZAK) | kinase-Nluc reporter destabilization hit call (ZAP70) | number of time points (ABL1) | number of time points (AKT1) | number of time points (ALK) | number of time points (ARAF) | number of time points (AURKA) | number of time points (AURKB) | number of time points (AURKC) | number of time points (BLK) | number of time points (BMX) | number of time points (BRAF) | number of time points (BRAF_V600E) | number of time points (BTK)
CC(C)(O)c1cc2nc(-c3cnc(N)nc3)nc(N3CCOCC3)c2s1 (2.5 µM) | inactive: 0 | inactive: 0 | inactive: 0 | inactive: 0 | inactive: 0 | inactive: 0 | inactive: 0 | inactive: 0 | 5 | 0 | 1 | 0 | 3 | 0 | 0 | 3 | 2 | 1 | 3 | 0
Cn1cc(-c2cn3nccc3c(-c3cnn([C@]4(CC#N)C[C@@H](C#N)C4)c3)n2)cn1 (10 µM) | inactive: 0 | inactive: 0 | inactive: 0 | inactive: 0 | inactive: 0 | inactive: 0 | inactive: 0 | inactive: 0 | 0 | 0 | 0 | 0 | 0 | 0 | 0 | 0 | 0 | 0 | 0 | 0
CC(C)(C)S(=O)(=O)c1ccc2nccc(Nc3n[nH]c4ccc(F)cc34)c2c1 (10 µM) | inactive: 0 | inactive: 0 | inactive: 0 | inactive: 0 | inactive: 0 | inactive: 0 | inactive: 0 | inactive: 0 | 0 | 0 | 0 | 0 | 0 | 0 | 0 | 0 | 0 | 0 | 0 | 0
CNC(=O)c1nnc(NC(=O)C2CC2)cc1Nc1cccc(-c2ncn(C)n2)c1OC [Deucravacitinib] (10 µM) | inactive: 0 | inactive: 0 | inactive: 0 | inactive: 0 | inactive: 0 | inactive: 0 | inactive: 0 | inactive: 0 | 0 | 0 | 0 | 0 | 0 | 0 | 0 | 0 | 0 | 0 | 0 | 0
O=C(CC(c1ccccc1)C(C(=O)O)C(=O)O)c1ccc(C(F)(F)F)cc1 (stereo not given) (10 µM) | inactive: 0 | inactive: 0 | inactive: 0 | inactive: 0 | inactive: 0 | inactive: 0 | inactive: 0 | inactive: 0 | 0 | 0 | 0 | 0 | 0 | 0 | 0 | 0 | 0 | 0 | 0 | 0
CC[C@@H]1CN(C(=O)NCC(F)(F)F)C[C@@H]1c1cnc2cnc3[nH]ccc3n12 [Upadacitinib] (10 µM) | inactive: 0 | inactive: 0 | inactive: 0 | inactive: 0 | inactive: 0 | inactive: 0 | inactive: 0 | inactive: 0 | 0 | 0 | 0 | 0 | 0 | 0 | 0 | 0 | 0 | 0 | 0 | 0
COc1ccc(F)cc1C(=O)NCc1ccc(-c2nn([C@@H](C)C(F)(F)F)c(N)c2C(N)=O)cc1 [Pirtobrutinib] (10 µM) | inactive: 0 | inactive: 0 | inactive: 0 | inactive: 0 | inactive: 0 | inactive: 0 | inactive: 0 | inactive: 0 | 0 | 0 | 0 | 0 | 0 | 0 | 0 | 0 | 0 | 0 | 0 | 0
COC[C@H]1Cn2cc(-c3nc(Nc4ccnn4C)ncc3C)nc2C(=O)N1Cc1ccc(F)c(F)c1 (10 µM) | inactive: 0 | inactive: 0 | inactive: 0 | inactive: 0 | inactive: 0 | inactive: 0 | inactive: 0 | inactive: 0 | 0 | 0 | 0 | 0 | 0 | 0 | 0 | 0 | 0 | 0 | 1 | 0
CNS(=O)(=O)C[C@H]1CC[C@H](N(C)c2[nH]cnc3nccc2-3)CC1 [Oclacitinib (maleate)] (10 µM) | inactive: 0 | inactive: 0 | inactive: 0 | inactive: 0 | inactive: 0 | inactive: 0 | inactive: 0 | inactive: 0 | 0 | 0 | 0 | 0 | 0 | 0 | 0 | 0 | 0 | 0 | 0 | 0
CC[C@H](C)[C@H](NC(=O)[C@H](CCCCN)NC(=O)[C@H](CC(C)C)NC(=O)[C@@H]1CCCN1C(=O)[C@H](CCC(=O)O)NC(=O)[C@H](Cc1ccc(O)cc1)NC(=O)[C@@H](NC(=O)[C@H](CO)NC(=O)CNC(=O)[C@H](CO)NC(=O)[C@H](CCCN=C(N)N)NC(=O)[C@H](CCCCN)NC(=O)[C@@H](NC(=O)[C@@H](N)CCCN=C(N)N)[C@@H](C)O)C(C)C)C(=O)O [Malantide] (10 µM) | inactive: 0 | inactive: 0 | inactive: 0 | inactive: 0 | inactive: 0 | inactive: 0 | inactive: 0 | inactive: 0 | 0 | 0 | 0 | 0 | 0 | 0 | 0 | 0 | 0 | 0 | 0 | 0
Cn1cc(-c2ccc3nnc(Sc4ccc5nn(C)cc5c4)n3n2)cn1 [c-Met inhibitor 1] (10 µM) | inactive: 0 | inactive: 0 | inactive: 0 | inactive: 0 | inactive: 0 | inactive: 0 | inactive: 0 | inactive: 0 | 0 | 0 | 0 | 0 | 0 | 0 | 0 | 0 | 0 | 0 | 0 | 0
C[C@@H]1CC[C@]2(C(=O)O)CC[C@]3(C)C(=CC[C@@H]4[C@@]5(C)CC[C@H](O)[C@@](C)(CO)[C@@H]5CC[C@]43C)[C@@H]2[C@]1(C)O [Rotundic acid] (10 µM) | inactive: 0 | inactive: 0 | inactive: 0 | inactive: 0 | inactive: 0 | inactive: 0 | inactive: 0 | inactive: 0 | 0 | 0 | 0 | 0 | 0 | 0 | 0 | 0 | 0 | 0 | 0 | 0
CCN1C(C)(C)CC(Oc2ccc(C(=O)Nc3ccc(NC(=O)Nc4cc(C(C)(C)C)on4)cc3)nc2)CC1(C)C (10 µM) | inactive: 0 | inactive: 0 | inactive: 0 | inactive: 0 | inactive: 0 | inactive: 0 | inactive: 0 | inactive: 0 | 0 | 0 | 0 | 0 | 0 | 0 | 0 | 0 | 0 | 0 | 0 | 0
COC(=O)/C=C/c1ccc(O)c(OC)c1 [Ferulic acid methyl ester] (10 µM) | inactive: 0 | inactive: 0 | inactive: 0 | inactive: 0 | inactive: 0 | inactive: 0 | inactive: 0 | inactive: 0 | 0 | 0 | 0 | 0 | 0 | 0 | 0 | 0 | 0 | 0 | 0 | 0
CC[C@H](C)[C@@H]1NC(=O)[C@@H]2CCCN2C(=O)[C@@H]2CCCN2C(=O)[C@@H]2CCCN2C(=O)[C@H](CC(C)C)NC(=O)CNC(=O)CNC(=O)[C@H](Cc2ccccc2)NC1=O [Heterophyllin B] (10 µM) | inactive: 0 | inactive: 0 | inactive: 0 | inactive: 0 | inactive: 0 | inactive: 0 | inactive: 0 | inactive: 0 | 0 | 0 | 0 | 0 | 0 | 0 | 0 | 0 | 0 | 0 | 0 | 0
CC(C)=CCC/C(C)=C/CC/C(C)=C/CSc1ccccc1C(=O)O [Salirasib] (10 µM) | inactive: 0 | inactive: 0 | inactive: 0 | inactive: 0 | inactive: 0 | inactive: 0 | inactive: 0 | inactive: 0 | 0 | 0 | 0 | 0 | 0 | 0 | 0 | 0 | 0 | 0 | 0 | 0
O=c1cc(-c2ccc(O)cc2)oc2cc(O)c([C@@H]3O[C@H](CO)[C@@H](O)[C@H](O)[C@H]3O)c(O)c12 [Isovitexin] (10 µM) | inactive: 0 | inactive: 0 | inactive: 0 | inactive: 0 | inactive: 0 | inactive: 0 | inactive: 0 | inactive: 0 | 0 | 0 | 0 | 0 | 0 | 0 | 0 | 0 | 0 | 0 | 0 | 0
CCc1ccc(NC(=O)Nc2ccccc2)cc1 (10 µM) | inactive: 0 | inactive: 0 | inactive: 0 | inactive: 0 | inactive: 0 | inactive: 0 | inactive: 0 | inactive: 0 | 0 | 0 | 0 | 0 | 0 | 0 | 0 | 0 | 0 | 0 | 0 | 0
O=C1C(=Cc2ccc(O)c(O)c2)Oc2ccccc21 (2.5 µM) | inactive: 0 | inactive: 0 | inactive: 0 | inactive: 0 | inactive: 0 | inactive: 0 | inactive: 0 | inactive: 0 | 0 | 0 | 0 | 0 | 0 | 0 | 0 | 0 | 0 | 0 | 0 | 0
C[C@@H](Nc1cc(F)cc(F)c1)c1cc(C(=O)N(C)C)cc2c(=O)cc(N3CCOCC3)oc12 (10 µM) | inactive: 0 | inactive: 0 | inactive: 0 | inactive: 0 | inactive: 0 | inactive: 0 | inactive: 0 | inactive: 0 | 0 | 0 | 0 | 0 | 0 | 0 | 0 | 0 | 0 | 0 | 0 | 0

Reprinted at random: two compounds from above
SMILES | kinase-Nluc reporter destabilization hit call (STK38) | kinase-Nluc reporter destabilization hit call (SYK) | kinase-Nluc reporter destabilization hit call (TEC) | kinase-Nluc reporter destabilization hit call (TYK2) | kinase-Nluc reporter destabilization hit call (ULK3) | kinase-Nluc reporter destabilization hit call (YES1) | kinase-Nluc reporter destabilization hit call (ZAK) | kinase-Nluc reporter destabilization hit call (ZAP70) | number of time points (ABL1) | number of time points (AKT1) | number of time points (ALK) | number of time points (ARAF) | number of time points (AURKA) | number of time points (AURKB) | number of time points (AURKC) | number of time points (BLK) | number of time points (BMX) | number of time points (BRAF) | number of time points (BRAF_V600E) | number of time points (BTK)
C[C@@H](Nc1cc(F)cc(F)c1)c1cc(C(=O)N(C)C)cc2c(=O)cc(N3CCOCC3)oc12 (10 µM) | inactive: 0 | inactive: 0 | inactive: 0 | inactive: 0 | inactive: 0 | inactive: 0 | inactive: 0 | inactive: 0 | 0 | 0 | 0 | 0 | 0 | 0 | 0 | 0 | 0 | 0 | 0 | 0
O=C(CC(c1ccccc1)C(C(=O)O)C(=O)O)c1ccc(C(F)(F)F)cc1 (stereo not given) (10 µM) | inactive: 0 | inactive: 0 | inactive: 0 | inactive: 0 | inactive: 0 | inactive: 0 | inactive: 0 | inactive: 0 | 0 | 0 | 0 | 0 | 0 | 0 | 0 | 0 | 0 | 0 | 0 | 0
